# Values joined by “and” are separate entries in the source; they are usually repeats but may differ in a detail not shown here. Equal entries are not always repeated. About 570 (0.3%) of roughly 190,000 compounds were called active. Inconclusive results, whose numbers are uncertain, are shown with a selection of clear calls.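 How the source made its calls: active means z-score above 3 at 5 µM with at least 500 cells counted in the well; inconclusive means wells under 500 cells, flagged as cytotoxic or low count; inactive means the rest.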
# Test: up-regulation of insulin promoter-GFP reporter – imaging, high-content screening, mouse beta cells (AID 1625)
# Conditions: MIN6 insulin promoter-GFP reporter, at 5 µM, active compounds read high
row,Compound,z-score
1,Cc1nc2ccc(NC(=O)c3cncc(Br)c3)cc2s1,inactive: 0.04
2,CCC(c1nnnn1C(C)(C)C)N(Cc1ccco1)Cc1cc2cccc(C)c2[nH]c1=O (stereo unspecified),inconclusive: -3.24
3,COC(=O)c1oc2c(c1C)C1(CCC2)SCCS1,inconclusive: -1.61
4,CCCCC1=CC2=C(c3ccco3)C(=O)C(C)(OC(=O)c3ccc(OC)cc3)C(=O)C2=CN1CC(C)C (stereo unspecified),active: 4.34
5,CSC(=NS(=O)(=O)c1ccc(C)cc1)SC,inactive: 0.73
6,CC(=O)c1c(C)[nH]c(C(=O)NCc2ccccn2)c1C,inconclusive: -2.15
7,CC#CC[N+](C)(C)CCCCCCCCCC,inconclusive: -3.51
8,CCCNC(=O)N1CCC(C(=O)c2ccc(Cl)cc2)CC1,active: 3.79
9,NC(=O)c1cc2ccc(O)cc2oc1=NCc1ccccc1,active: 6.96
10,COCc1nnc(NC(=O)c2ccc(Cl)cc2[N+](=O)[O-])s1,inconclusive: -4.38
11,O=C(N/N=C/c1ccccn1)c1cc(-c2ccc(Br)cc2)nc2ccccc12,inconclusive: -2.64
12,O=C1C=CC(O)(c2cc(=O)c3c(O)cc(O)cc3o2)C=C1,inconclusive: -4.38
13,O=C(Nc1ccnc(-c2ccncc2)n1)c1ccc(Cl)cc1,inactive: 0.48
14,CCOC(=O)N1CCC(NC(=O)C2CCCN(Cc3nc(-c4cccc(Cl)c4)oc3C)C2)CC1 (stereo unspecified),inconclusive: -4.75
15,Cc1nn(-c2ccccc2)c(C)c1/C=N/NC(=O)c1cc(-c2cccs2)[nH]n1,inactive: -1.99
16,C(=N\Nc1nc2ccccc2[nH]1)/c1ccccn1,inconclusive: -3.41
17,COc1ccc(-c2cn(-c3ccccc3)c3[n+]2CCS3)cc1,inconclusive: -3.71 and inconclusive: -0.71
18,O=C(CCS(=O)(=O)c1ccc(Br)cc1)Nc1ccc(Br)cc1F,inactive: -0.57
19,CC(C)C1S/C(=N/N=C/c2ccco2)NC1=O (stereo unspecified),active: 3.25

# Reprinted at random: three entries already listed.
row,Compound,z-score
4,CCCCC1=CC2=C(c3ccco3)C(=O)C(C)(OC(=O)c3ccc(OC)cc3)C(=O)C2=CN1CC(C)C (stereo unspecified),active: 4.34
18,O=C(CCS(=O)(=O)c1ccc(Br)cc1)Nc1ccc(Br)cc1F,inactive: -0.57
1,Cc1nc2ccc(NC(=O)c3cncc(Br)c3)cc2s1,inactive: 0.04

# Carrying on.

row,Compound,z-score
1,CC(C)(C)c1nc2ccccc2c2nnc(SCC(=O)Nc3nccs3)n12,inactive: -0.7
2,COc1ccc(N2CCN(c3cc(C)c4ccc(O)cc4n3)CC2)cc1,inactive: -0.44
3,CCCc1nc2oc(C(=O)c3ccccc3)c(N)c2c2c1COC(C)(C)C2,inconclusive: -3.78
4,CC(C)CC(=O)NC1(C(F)(F)F)C(=O)N(CC(C)C)C2=C1C(=O)CC(C)(C)C2 (stereo unspecified),inconclusive: -1.17
5,O=C(Nc1ccc(C2CCCCC2)cc1)C1CCCN(c2ncccn2)C1 (stereo unspecified),active: 3.77
6,CC#CC[N+](C)(C)CCCCCCCCCCCC,inconclusive: -1.22
7,O=C(c1cc(NC(=O)C23CC4CC(CC(C4)C2)C3)cc(NC(=O)C23CC4CC(CC(C4)C2)C3)c1)N1CCCCC1,inconclusive: -1.72
8,CCCc1c(-c2ccc(O)cc2)nn(-c2ccc(O)cc2)c1-c1ccc(O)cc1,inactive: -0.13
9,CCCSc1nc(O)c(C2OC(=O)c3c2ccc(OC)c3OC)c(=O)n1-c1ccccc1 (stereo unspecified),inconclusive: -2.37
10,Cc1cccc(N(CC(=O)NC2CCCCC2)C(=O)Cn2nnc(-c3ccc(C)o3)n2)c1,inactive: -0.51
11,Nc1nonc1C(=O)NCCNCc1cc(Br)ccc1OCc1ccc(F)cc1,inconclusive: -0.68
12,COc1ccc(N(CCN2C(=O)c3ccccc3C2=O)C(=O)c2cccc([N+](=O)[O-])c2)cc1,active: 3.09
13,CC(=O)c1c(C)[nH]c(C(=O)Nc2ccc(C)c(S(=O)(=O)N(C)C)c2)c1C,inactive: -0.28
14,CCC(C)(C)c1ccc(OCCCC[n+]2ccc(C)cc2)c(C(C)(C)CC)c1,inconclusive: -1.84
15,Brc1cc2c(cc1C1Nc3ccccc3C3C=CCC31)OCO2 (stereo unspecified),inactive: -0.19
16,CCCCCCNCc1c(F)cccc1Cl,inactive: 0.29
17,NC(=O)CC[C@@H]1NC(=O)[C@@H]2CCCN2C(=O)c2cc([N+](=O)[O-])cc(F)c2NCCC[C@@H](C(N)=O)NC1=O,inconclusive: -4.95
18,OCCC1CN(Cc2ccc3c(c2)CCO3)CCN1Cc1ccc(F)cc1 (stereo unspecified),inactive: -0.2
19,Oc1c(CN2CCCCC2)cc(COCc2ccccc2)c2cccnc12,inconclusive: -1

row,Compound,z-score
1,Cc1nn(-c2ccccc2)c2c1C(c1ccc([N+](=O)[O-])cc1)N1C(=N2)C(=O)Nc2ccccc21 (stereo unspecified),inactive: -1.37
2,Cc1cc(NC(=O)/C(C#N)=C/c2ccc(-c3ccc(SC(F)F)cc3)o2)n(-c2ccccc2)n1,active: 3.43
3,Cc1ccc(C(=O)NCCn2c(N)c(C#N)c3nc4ccccc4nc32)cc1,active: 4.08
4,COc1cc2c3c(c1)C1(C(=O)N3C(C)(C)C=C2C)C(C#N)=C(N)Oc2cc(O)ccc21 (stereo unspecified),inactive: 1.31
5,O=C(Nc1c2c(nc3ccccc13)CCCC2)c1ccccc1Cl,inactive: -0.02
6,COc1ccc(OC)c(NC(=O)C2CC(=O)N(c3ccccc3)C2)c1 (stereo unspecified),inconclusive: -0.69
7,COc1ccccc1C(=O)N=c1sc2c(C)ccc(OC)c2n1C,inactive: 0.24
8,Cc1cc(C)cc(N(CC(=O)N2CCn3c2nc2ccccc23)S(=O)(=O)c2c(C)noc2C)c1,inconclusive: 0.18
9,COc1cc(N=Nc2cccc(S(N)(=O)=O)c2)c2ccccc2c1N,active: 5.92
10,CC(=O)Nc1sc2c(c1-c1nc3ccccc3s1)CCN(C(C)C)C2,inconclusive: -1.45
11,Cc1oc(S(=O)(=O)N2CCCCC2)cc1NC(=O)Nc1ccc(F)cc1,inactive: 0.31
12,CC(C)CN=C(NS(=O)(=O)c1ccccc1)C(Cl)(Cl)Cl,inconclusive: -0.65
13,CC(=O)C1=C(c2ccc(Br)cc2)C(=O)c2ccccc2C1=O,inconclusive: -1.49
14,Cc1cc(C)cc(N(CC(=O)N2CC=C(c3ccccc3)CC2)S(=O)(=O)c2c(C)noc2C)c1,inconclusive: -0.72
15,CCCCCCc1cc2cc(-c3nnc(-c4cc(OC)c(OC)c(OC)c4)o3)c(=O)oc2cc1O,active: 9.96
16,COC(=O)c1sccc1NC(=O)C1CC1,inactive: -0.16
17,O=C(CN1CCN(Cc2ccccc2)C1=O)NCCCN1CCOCC1,inconclusive: -0.47
18,Cc1ccc(-c2csc(NC(=O)c3cccc(S(=O)(=O)N4CCN(C)CC4)c3)n2)cc1,inactive: 0.23

# From PubChem BioAssay AID1625 (Sanford-Burnham Center for Chemical Genomics, 2009)
